For 2 molecules, binding results are on record in paper doi:10.1101/2020.08.19.257774.

The target of test [1] is A. thaliana Light-dependent Protochlorophyllide OxidoReductase isoform C (AtPORC) (A. thaliana) (UniProt O48741). Kind of test: negative stain EM.
Test [2] has as its target A. thaliana Light-dependent Protochlorophyllide OxidoReductase isoform A (AtPORA) (A. thaliana) (UniProt Q42536). The test can be described thus: negative stain EM.

No constants are given. Whether binding was seen depends on the method and setting. Some entries that bind do so weakly or less than the wild type.

B1: A. thaliana Light-dependent Protochlorophyllide OxidoReductase isoform C (AtPORC) (enzyme, UniProt O48741 68-401)
chain: QTVTATPPANEASPEQKKTERKGTAVITGASSGLGLATAKALADTGKWHVIMACRNFLKAEKAARSVGMSKEDYTVMHLDLASLESVKQFVENFRRTEQPLDVLVCNAAVYQPTAKEPSFTAEGFEISVGTNHLGHFLLSRLLLDDLKKSDYPSKRMIIVGSITGNTNTLAGNVPPKANLGDLRGLASGLNGQNSSMIDGGEFDGAKAYKDSKVCNMLTMQELHRRYHEETGVTFASLYPGCIATTGLFREHIPLFRLLFPPFQKYITKGYVSEEEAGKRLAQVVSDPSLGKSGVYWSWNNNSSSFENQLSKEASDAEKAKKLWEVSEKLVGLA
For the molecule B1, the binding entry in test [1] was “binds”.

B2: A. thaliana Light-dependent Protochlorophyllide OxidoReductase isoform A (AtPORA) (enzyme, UniProt Q42536 70-405)
chain: QAIATSTPSVTKSSLDRKKTLRKGNVVVTGASSGLGLATAKALAETGKWHVIMACRDFLKAERAAQSAGMPKDSYTVMHLDLASLDSVRQFVDNFRRAEMPLDVLVCNAAVYQPTANQPTFTAEGFELSVGINHLGHFLLSRLLIDDLKNSDYPSKRLIIVGSITGNTNTLAGNVPPKANLGDLRGLAGGLNGLNSSAMIDGGDFVGAKAYKDSKVCNMLTMQEFHRRFHEDTGITFASLYPGCIATTGLFREHIPLFRTLFPPFQKYITKGYVSESEAGKRLAQVVADPSLTKSGVYWSWNKTSASFENQLSQEASDVEKARRVWEVSEKLVGLA
In the case of B2, the binding result in test [2] is recorded as “binds”.
